Drawing on PMC5541716, this text covers binding for 3 molecules.

These are yes or no findings as the source states them, for the method shown. In cells and extracts the contact can be indirect. Some results given as binding are weak or reduced against the parent protein; the word gives no strength.

Assay [1] concerns the target histone H2A member X (H2AX), endogenous in MHCC-97 L cells (human (endogenous in MHCC-97 L)) (UniProt P16104). Kind of assay: co-IP; endogenous proteins, mitochondrial fraction; immunoprecipitation with ASPH antibody or H2AX antibody.
Assay [2] has the same target. Put plainly: co-IP; endogenous proteins, total cell lysates of MHCC-97 L cells; immunoprecipitation with ASPH antibody or H2AX antibody.
The target of assay [3] is histone H2A member X (H2AX), endogenous in HepG2 cells (human (endogenous in HepG2)) (UniProt P16104). Put plainly: co-IP; HepG2 cells overexpressing ASPH or control vector; immunoprecipitation with H2AX antibody, immunoblot with ASPH, POLG and mTFA antibodies. (In general: In western blotting, separated proteins are transferred to a membrane and probed.)

B1: aspartate β-hydroxylase (ASPH), endogenous in MHCC-97 L cells (enzyme, UniProt Q12797 1-758)
chain: MAQRKNAKSSGNSSSSGSGSGSTSAGSSSPGARRETKHGGHKNGRKGGLSGTSFFTWFMVIALLGVWTSVAVVWFDLVDYEEVLGKLGIYDADGDGDFDVDDAKVLLGLKERSTSEPAVPPEEAEPHTEPEEQVPVEAEPQNIEDEAKEQIQSLLHEMVHAEHVEGEDLQQEDGPTGEPQQEDDEFLMATDVDDRFETLEPEVSHEETEHSYHVEETVSQDCNQDMEEMMSEQENPDSSEPVVEDERLHHDTDDVTYQVYEEQAVYEPLENEGIEITEVTAPPEDNPVEDSQVIVEEVSIFPVEEQQEVPPETNRKTDDPEQKAKVKKKKPKLLNKFDKTIKAELDAAEKLRKRGKIEEAVNAFKELVRKYPQSPRARYGKAQCEDDLAEKRRSNEVLRGAIETYQEVASLPDVPADLLKLSLKRRSDRQQFLGHMRGSLLTLQRLVQLFPNDTSLKNDLGVGYLLIGDNDNAKKVYEEVLSVTPNDGFAKVHYGFILKAQNKIAESIPYLKEGIESGDPGTDDGRFYFHLGDAMQRVGNKEAYKWYELGHKRGHFASVWQRSLYNVNGLKAQPWWTPKETGYTELVKSLERNWKLIRDEGLAVMDKAKGLFLPEDENLREKGDWSQFTLWQQGRRNENACKGAPKTCTLLEKFPETTGCRRGQIKYSIMHPGTHVWPHTGPTNCRLRMHLGLVIPKEGCKIRCANETKTWEEGKVLIFDDSFEHEVWQDASSFRLIFIVDVWHPELTPQQRRSLPAI
On to B1, for which the binding entry in assay [1] and in assay [2] was “binds” each time.

B2: ASPH overexpressed in HepG2 cells (HepG2-ASPH) (enzyme, UniProt Q12797 1-758)
chain: B1 chain
B2: the binding entry in assay [3] is on record as “binds”.

B3: mitochondrial transcription factor A (mtTFA), endogenous in HepG2 cells (protein, UniProt Q00059 43-246)
chain: SSVLASCPKKPVSSYLRFSKEQLPIFKAQNPDAKTTELIRRIAQRWRELPDSKKKIYQDAYRAEWQVYKEEISRFKEQLTPSQIMSLEKEIMDKHLKRKAMTKKKELTLLGKPKRPRSAYNVYVAERFQEAKGDSPQEKLKTVKENWKNLSDSEKELYIQHAKEDETRYHNEMKSWEEQMIEVGRKDLLRRTIKKQRKYGAEEC
As to B3, in assay [3], the binding entry was “binds”.
